Assay results taken from publication doi:10.1101/2022.09.13.507776.

The chains behind the UniProt entries cited, without tags or fusion partners.
UniProt Q811P8: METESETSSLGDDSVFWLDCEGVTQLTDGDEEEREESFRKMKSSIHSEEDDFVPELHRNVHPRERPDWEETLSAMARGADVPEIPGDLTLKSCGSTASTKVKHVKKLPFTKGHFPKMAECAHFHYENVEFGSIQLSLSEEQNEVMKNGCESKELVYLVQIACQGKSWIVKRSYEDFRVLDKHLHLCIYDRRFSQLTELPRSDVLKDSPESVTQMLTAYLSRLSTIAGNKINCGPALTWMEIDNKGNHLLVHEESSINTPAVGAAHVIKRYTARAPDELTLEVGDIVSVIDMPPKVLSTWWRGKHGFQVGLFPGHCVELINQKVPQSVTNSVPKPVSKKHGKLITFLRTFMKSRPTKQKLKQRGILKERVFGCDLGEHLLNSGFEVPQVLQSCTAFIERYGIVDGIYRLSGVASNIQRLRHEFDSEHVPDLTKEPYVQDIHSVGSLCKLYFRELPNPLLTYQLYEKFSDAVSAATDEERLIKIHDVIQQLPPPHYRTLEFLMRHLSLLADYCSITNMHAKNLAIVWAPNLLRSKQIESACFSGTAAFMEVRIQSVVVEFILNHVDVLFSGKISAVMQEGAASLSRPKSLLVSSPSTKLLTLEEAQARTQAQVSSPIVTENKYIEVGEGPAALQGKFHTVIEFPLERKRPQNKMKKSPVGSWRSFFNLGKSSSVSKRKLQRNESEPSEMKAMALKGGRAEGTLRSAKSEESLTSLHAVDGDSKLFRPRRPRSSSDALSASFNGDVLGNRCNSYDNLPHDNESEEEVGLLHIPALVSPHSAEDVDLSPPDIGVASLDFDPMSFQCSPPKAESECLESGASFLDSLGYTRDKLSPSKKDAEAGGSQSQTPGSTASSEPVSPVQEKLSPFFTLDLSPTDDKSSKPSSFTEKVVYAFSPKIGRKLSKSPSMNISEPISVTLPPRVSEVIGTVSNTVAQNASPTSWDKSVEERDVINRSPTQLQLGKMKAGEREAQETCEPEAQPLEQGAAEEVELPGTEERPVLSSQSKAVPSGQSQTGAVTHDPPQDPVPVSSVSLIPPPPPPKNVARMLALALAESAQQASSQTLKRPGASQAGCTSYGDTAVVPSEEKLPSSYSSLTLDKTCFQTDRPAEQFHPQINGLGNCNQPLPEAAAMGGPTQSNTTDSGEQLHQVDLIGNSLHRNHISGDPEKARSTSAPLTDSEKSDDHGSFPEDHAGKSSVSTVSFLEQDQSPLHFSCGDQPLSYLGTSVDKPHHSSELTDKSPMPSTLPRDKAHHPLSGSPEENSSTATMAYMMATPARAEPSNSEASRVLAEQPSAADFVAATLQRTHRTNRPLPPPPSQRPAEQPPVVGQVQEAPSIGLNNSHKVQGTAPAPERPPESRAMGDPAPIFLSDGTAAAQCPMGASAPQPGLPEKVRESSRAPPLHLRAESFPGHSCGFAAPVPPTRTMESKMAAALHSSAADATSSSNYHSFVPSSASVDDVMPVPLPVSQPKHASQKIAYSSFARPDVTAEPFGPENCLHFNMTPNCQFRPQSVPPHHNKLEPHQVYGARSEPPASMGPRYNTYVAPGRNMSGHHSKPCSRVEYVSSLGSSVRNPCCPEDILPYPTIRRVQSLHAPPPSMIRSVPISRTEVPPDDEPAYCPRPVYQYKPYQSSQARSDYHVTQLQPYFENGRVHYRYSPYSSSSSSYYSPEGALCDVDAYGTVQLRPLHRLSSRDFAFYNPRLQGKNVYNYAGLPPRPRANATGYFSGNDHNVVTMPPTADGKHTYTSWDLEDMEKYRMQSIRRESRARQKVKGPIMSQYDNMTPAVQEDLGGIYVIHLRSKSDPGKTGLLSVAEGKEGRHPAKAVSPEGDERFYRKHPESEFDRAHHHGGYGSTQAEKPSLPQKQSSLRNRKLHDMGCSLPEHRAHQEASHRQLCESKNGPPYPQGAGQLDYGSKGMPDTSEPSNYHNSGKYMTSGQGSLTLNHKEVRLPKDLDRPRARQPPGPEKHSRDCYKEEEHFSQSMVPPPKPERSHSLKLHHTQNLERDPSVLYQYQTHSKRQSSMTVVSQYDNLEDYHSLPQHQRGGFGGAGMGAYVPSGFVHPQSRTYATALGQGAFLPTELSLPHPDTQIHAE
UniProt Q80U49: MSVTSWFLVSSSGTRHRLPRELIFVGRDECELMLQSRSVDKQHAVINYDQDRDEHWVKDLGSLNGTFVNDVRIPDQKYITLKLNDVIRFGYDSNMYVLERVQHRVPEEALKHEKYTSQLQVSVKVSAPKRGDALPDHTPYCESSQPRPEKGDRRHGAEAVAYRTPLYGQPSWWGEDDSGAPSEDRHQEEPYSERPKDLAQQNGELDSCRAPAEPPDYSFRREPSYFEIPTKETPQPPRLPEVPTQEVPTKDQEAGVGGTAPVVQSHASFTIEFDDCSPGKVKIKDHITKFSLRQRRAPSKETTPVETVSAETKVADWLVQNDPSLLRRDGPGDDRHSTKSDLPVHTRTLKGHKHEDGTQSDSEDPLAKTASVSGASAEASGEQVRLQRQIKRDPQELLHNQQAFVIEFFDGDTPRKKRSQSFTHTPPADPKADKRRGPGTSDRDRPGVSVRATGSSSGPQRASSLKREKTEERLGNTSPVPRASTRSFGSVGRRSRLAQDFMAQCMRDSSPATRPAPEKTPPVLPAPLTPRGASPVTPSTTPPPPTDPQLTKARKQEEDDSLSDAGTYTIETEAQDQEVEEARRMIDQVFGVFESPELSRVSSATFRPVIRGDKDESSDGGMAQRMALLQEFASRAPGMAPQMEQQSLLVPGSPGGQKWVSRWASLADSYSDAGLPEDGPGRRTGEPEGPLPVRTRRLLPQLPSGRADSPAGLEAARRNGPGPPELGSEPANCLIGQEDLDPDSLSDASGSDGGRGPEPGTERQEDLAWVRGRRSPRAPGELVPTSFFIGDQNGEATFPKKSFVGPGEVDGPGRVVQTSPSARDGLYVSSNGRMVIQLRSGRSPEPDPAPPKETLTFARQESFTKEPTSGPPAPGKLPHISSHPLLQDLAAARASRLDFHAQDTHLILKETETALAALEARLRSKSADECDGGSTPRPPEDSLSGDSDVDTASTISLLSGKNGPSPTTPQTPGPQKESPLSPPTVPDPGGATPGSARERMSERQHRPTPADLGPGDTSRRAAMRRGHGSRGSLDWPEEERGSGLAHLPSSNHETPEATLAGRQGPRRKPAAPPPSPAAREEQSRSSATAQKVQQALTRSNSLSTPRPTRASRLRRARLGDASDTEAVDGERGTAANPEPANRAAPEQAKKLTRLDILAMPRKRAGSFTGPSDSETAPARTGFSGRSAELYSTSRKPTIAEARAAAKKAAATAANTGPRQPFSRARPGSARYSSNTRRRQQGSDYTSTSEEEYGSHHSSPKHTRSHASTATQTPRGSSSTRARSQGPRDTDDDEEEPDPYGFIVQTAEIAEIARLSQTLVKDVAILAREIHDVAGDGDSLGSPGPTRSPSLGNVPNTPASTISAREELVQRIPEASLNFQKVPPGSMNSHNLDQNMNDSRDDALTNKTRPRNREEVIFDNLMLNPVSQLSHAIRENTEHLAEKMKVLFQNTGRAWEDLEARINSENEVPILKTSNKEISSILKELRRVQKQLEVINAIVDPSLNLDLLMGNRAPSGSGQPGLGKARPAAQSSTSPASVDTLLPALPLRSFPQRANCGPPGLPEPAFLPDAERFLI

B1: SRCIN1 (protein, UniProt Q9QWI6 1-1250)
chain: MQPWQCLRRFALAWWERTAEGRARSPREEVGPRDPGGRGEPDPERSSPPMLSADDAEYPREYRTLGGGGGGGSGGRRFSNVGLVHTSERRHTVIAAQSLEALSGLQKADADRKRDAFMDHLKSKYPQHALALRGQQDRMREQVGGWTVDPVCLLSSLCSHLHGDSTPSGAGQPAQQPNYWSFKTRSSRHTQGAQPGLADQAAKLSYASAESLETMSEAELPLGFSRMNRFRQSLPLSRSASQTKLRSPGVLFLQFGEETRRVHITHEVSSLDTLHALIAHMFPQKLTMGMLKSPNTAILIKDEARNVFYELEDVRDIQDRSIIKIYRKEPLYAAFPGSHLTNGDLRREMVYASRESSPTRRLNNLSPASHLASSSPPPGLPSGLPSGLPSGSPSRSRLSYAGGRPPSYAGSPVHHAAERLGGAPTGQGVSPSPSAILERRDVKPDEDLAGKAGGMVLVKGEGLYADPYGLLHEGRLSLAAAAETHSHTRARAACTSGVPCALSAPTPLPRCSPTWRTRCTRRALAALYGDGYGFRLPPSSPQKLADVSAPSGGPPPPHSPYSGPPSRGSPVRQSFRKDSGSSSVFAESPGGKARSTGSASTAGAPPSELFPGPGERSLVGFGPPVPAKDTETRERMEAMEKQIASLTGLVQSALLRGSEPETPSEKVEGSNGAATPSAPVCGSGSKSSGATPVSGPPPPSASSTPAGQPTAVSRLQMQLHLRGLQNSASDLRGQLQQLRNVQLQNQESVRALLKPTEADVSMRVSEAARRQEDPLQRQRTLVEEERLRYLNDEELITQQLNDLEKSVEKIQRDVAHNHRLMPGPELEEKALVLKQLGETLTELKAHFPGLQSKMRVVLRVEVEAVKFLKEEPQRLDGLLKRCRGVTDTLAQIRRQVDEGMWPPPNNLLNQSPKKVAAETDFSKGLDFEIPPPSPPLNLHELSGPAEGTPLTPKSTNPTKCLDASSKRNTDKAVSVEAAERDWEEKRAALTQYSAKDINRLLEETQAELLKAIPDLDCASKTHPGPAPTPDHKPPKAPHGQKAAPRTEPSGRRGSDELTVPRYRTEKPSKSPPPPPPRRSFPSSHGLTTTRTGEVVVTSKKDSVFIKKAESEELEVQKPQVKLRRAVSEVVRPASTPPIMASAIKDEDDEERIIAELESGGSSVPPMKVVTPGASRLKAAQGPAGSPDKGKHGKQRTEYMRIQAQQQATKPSKEVSGPNETSSPGSEKPSGSRTSIPVLTSFGARNSSISF
B2: CTNNA2 (protein, UniProt Q61301 1-953)
chain: MTSATSPIILKWDPKSLEIRTLTVERLLEPLVTQVTTLVNTSNKGPSGKKKGRSKKAHVLAASVEQATQNFLEKGEQIAKESQDLKEELVAAVEDVRKQGETMRIASSEFADDPCSSVKRGTMVRAARALLSAVTRLLILADMADVMRLLSHLKIVEEALEAVKNATNEQDLANRFKEFGKEMVKLNYVAARRQQELKDPHCRDEMAAARGALKKNATMLYTASQAFLRHPDVAATRANRDYVFKQVQEAIAGISSAAQATSPTDEAKGHTGIGELAAALNEFDNKIILDPMTFSEARFRPSLEERLESIISGAALMADSSCTRDDRRERIVAECNAVRQALQDLLSEYMNNTGRKEKGDPLNIAIDKMTKKTRDLRRQLRKAVMDHISDSFLETNVPLLVLIEAAKSGNEKEVKEYAQVFREHANKLVEVANLACSISNNEEGVKLVRMAATQIDSLCPQVINAALTLAARPQSKVAQDNMDVFKDQWEKQVRVLTEAVDDITSVDDFLSVSENHILEDVNKCVIALQEGDVDTLDRTAGAIRGRAARVIHIINAEMENYEAGVYTEKVLEATKLLSETVMPRFAEQVEVAIEALSANVPQPFEENEFIDASRLVYDGVRDIRKAVLMIRTPEELEDDSDFEQEDYDVRSRTSVQTEDDQLIAGQSARAIMAQLPQEEKAKIAEQVEIFHQEKSKLDAEVAKWDDSGNDIIVLAKQMCMIMMEMTDFTRGKGPLKNTSDVINAAKKIAEAGSRMDKLARAVADQCPDSACKQDLLAYLQRIALYCHQLNICSKVKAEVQNLGGELIVSGTGVQSTFTTFYEVDCDVIDGGRASQLSTHLPTCAEGAPIGSGSSDSSMLDSATSLIQAAKNLMNAVVLTVKASYVASTKYQKVYGTAAVNSPVVSWKMKAPEKKPLVKREKPEEFQTRVRRGSQKKHISPVQALSEFKAMDSF
B3: PKP4 (protein, UniProt Q68FH0 1-1190)
chain: MPAPEQGSLVEEGQPQTHQEAVSTGPGMEPETTATTILASVKEQELQFQRLTRELEVERQIVASQLERCRLGAESPSIASTSSTEKSFPWRSTDVPNPGVSKPRVSDTIHPNNYLIRTEPEQGTLYSPEQTSLHESEGSLGNSRSSTQMNSYSDSGYQEAGSFHNSQTVNKADSRQHPFTGSTSNHVVRTSRAEGQTLVQPSVANRAMRRVSSVPSRAQSPSYVTSTGVSPSRGSLRTSLGSGFGSPSVTDSRPLNPSAYSSSTLPAQRAASPYSQRPASPTAVRRVGSVTSRQTSNPNGPVPQYQTTTRVGSPLTLTDAQTRVASPSQGQVGSSSPKRSGMTAVPQHLGPSLQRTVHDMDQFGQQQYDIYERMVPPRPDSLTGLRSSYASQHSQLGQELRSAVSPDLHITPIYEGRTYYSPVYRSPNHGTVELQGSQTALYRTGSVGIGNLQRTSSQRSTLTYQRNNYALNTAATYAEPYRPVQYRVQECSYNRLQHTGPADDGATRSPSIDSIQKDPREFAWRDPELPEVIHMLQHQFPSVQANAAAYLQHLCFGDNKVKMEVYRLGGIKHLVDLLDHRVLEVQKNACGALRNLVFGKSTDENKIAMKNVGGIPALLRLLRKSIDAEVRELVTGVLWNLSSCDAVKMTIIRDALSTLTNTVIVPHSGWNNSSFDDDHKIKFQTSLVLRNTTGCLRNLSSAGEEARKQMRSCEGLVDSLLYVIHTCVNTSDYDSKTVENCVCTLRNLSYRLELEVPQARLLGLNELDDLLGKESPSKDSEPSCWGKKKKKKKRTPQEDQWDGVGPIPGLSKSPKGVEMLWHPSVVKPYLTLLAESSNPATLEGSAGSLQNLSAGNWKFAAYIRAAVRKEKGLPILVELLRMDNDRVVSSVATALRNMALDVRNKELIGKYAMRDLVNRLPGGNGPSILSDETVAAICCALHEVTSKNMENAKALADSGGIEKLVNITKGRGDRSSLKVVKAAAQVLNTLWQYRDLRSIYKKDGWNQNHFITPVSTLERDRFKSHPSLSTTNQQMSPIIQSVGSTSSSPALLGIREPRSEYDRTQPPMQYYNSQGDTTHKGLYPGSSKPSPIYISSYSSPAREQNRRLQHQQLYYQDDSTRKTLDAYRLYLQSPRSYEDPYCDDRVHFPASTDYSTQYGLKSTTNYVDFYSTKRPSYRAEQYPGSPDSWV
B4: AKAP10 (protein, UniProt O88845 29-662)
chain: KVKGKEQEKTLDVKSTKASVAVHSPQKSTKNHALLEAAGPSHVAINAISANMDSFSSSRTATLKKQPSHMEAAHFGDLGRSCLDYQTQETKSSLSKTLEQVLRDTVVLPYFLQFMELRRMEHLVKFWLEAESFHSTTWSRIRAHSLNTVKQSSLAEPVSPSKRHETPASSVTEALDRRLGDSSSAPLLVTQSEGTDLSSRTQNPQNHLLLSQEGHSARSLHREVARTGSHQIPTDSQDSSSRLAVGSRNSCSSPLRELSEKLMKSIEQDAVNTFTKYISPDAAKPIPITEAMRNDIIAKICGEDGQVDPNCFVLAQAVVFSAMEQEHFSEFLRSHHFCKYQIEVLTSGTVYLADILFCESALFYFSEYMEKEDAVNILQFWLAADNFQSQLAAKKGQYDGQEAQNDAMILYDKYFSLQATHPLGFDDVVRLEIESNICREGGPLPNCFTTPLRQAWTTMEKVFLPGFLSSNLYYKYLNDLIHSVRGDEFLGGNVSLAAHGSVCLPEESHSGGSDGSTAQSSVKKASIKILKNFDEAIIVDAASLDPESLYQRTYAGKMSFGRVSDLGQFIRESEPEPDVKKSKGFMFSQAMKKWVQGNTDEAQEELAWKIAKMIVSDVMQQAHHDQPLEKSTKL

How the values were obtained:
[1] = target: T1, catenin delta-2 (CTNND2), mouse (mouse (endogenous in P15 mouse brain)) (UniProt O35927); test: affinity purification with mass spectrometry
T1 sequence: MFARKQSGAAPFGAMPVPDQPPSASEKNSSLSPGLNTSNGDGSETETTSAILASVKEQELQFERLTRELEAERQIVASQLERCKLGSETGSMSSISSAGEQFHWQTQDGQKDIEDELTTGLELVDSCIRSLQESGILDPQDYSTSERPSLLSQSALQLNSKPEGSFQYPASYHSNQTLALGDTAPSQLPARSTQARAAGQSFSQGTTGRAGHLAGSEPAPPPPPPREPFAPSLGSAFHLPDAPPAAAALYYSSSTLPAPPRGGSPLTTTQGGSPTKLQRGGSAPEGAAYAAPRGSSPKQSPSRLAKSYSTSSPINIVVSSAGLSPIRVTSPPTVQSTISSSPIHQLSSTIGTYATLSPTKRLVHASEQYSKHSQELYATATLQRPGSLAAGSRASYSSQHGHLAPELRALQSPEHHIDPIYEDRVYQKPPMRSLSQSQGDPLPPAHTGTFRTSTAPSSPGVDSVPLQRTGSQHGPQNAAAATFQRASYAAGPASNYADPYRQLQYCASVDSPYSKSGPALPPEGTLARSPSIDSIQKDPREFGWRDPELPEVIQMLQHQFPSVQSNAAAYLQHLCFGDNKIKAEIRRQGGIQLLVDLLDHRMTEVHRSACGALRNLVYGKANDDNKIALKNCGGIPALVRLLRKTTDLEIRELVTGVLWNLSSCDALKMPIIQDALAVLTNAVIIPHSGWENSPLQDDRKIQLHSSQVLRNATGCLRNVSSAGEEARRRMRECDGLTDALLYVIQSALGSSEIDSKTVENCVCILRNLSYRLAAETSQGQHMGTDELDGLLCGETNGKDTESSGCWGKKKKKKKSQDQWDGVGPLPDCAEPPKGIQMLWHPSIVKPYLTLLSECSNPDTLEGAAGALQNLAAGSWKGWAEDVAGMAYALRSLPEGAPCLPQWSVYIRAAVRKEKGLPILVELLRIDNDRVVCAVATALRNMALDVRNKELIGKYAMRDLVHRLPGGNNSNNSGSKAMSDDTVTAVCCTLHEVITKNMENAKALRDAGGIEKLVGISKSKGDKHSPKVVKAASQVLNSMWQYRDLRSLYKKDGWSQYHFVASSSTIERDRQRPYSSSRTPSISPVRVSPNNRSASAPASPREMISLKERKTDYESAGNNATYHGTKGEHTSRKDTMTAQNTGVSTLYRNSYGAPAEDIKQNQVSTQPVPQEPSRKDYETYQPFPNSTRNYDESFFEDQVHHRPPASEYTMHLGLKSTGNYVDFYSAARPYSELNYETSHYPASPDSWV

[2] = target: T1, catenin delta-2 (CTNND2), mouse (mouse (endogenous in P15 mouse brain)); test: affinity purification with mass spectrometry; remark: listed apart in the source

Molecule | binding [1] | binding [2]
SYNGAP1, mouse (from UniProt F6SEU4 1-1340) | binds | 
ARHGAP32 (from UniProt Q811P8 1-2089) | binds | 
CEP170B (from UniProt Q80U49 1-1574) | binds | 
B1 |  | binds
B2 |  | binds
B3 |  | binds
B4 |  | binds

Like-named read-outs stand apart in the source and are kept apart here. These are yes or no findings as the source states them, for the method shown. Binding seen in cells or lysates may run through a third protein. These calls come from enrichment with a bait or labelling near it, and not all partners need be listed.
